# Test results taken from US20230313299A1, “METHOD FOR DIAGNOSIS AND/OR PROGNOSIS OF LIVER DISEASE PROGRESSION AND RISK OF HEPATOCELLULAR CARCINOMA AND DISCOVERY OF THERAPEUTIC COMPOUNDS AND TARGETS TO TREAT LIVER DISEASE AND CANCER” (UNIVERSITÉ DE STRASBOURG, priority 2020, published 2023).
# Test system: H3K27ac
# Assay: H3K27ac ChIPmentation-based ChIP-Seq with RNA-Seq of NASH and CHC patient liver tissue (Table S3)
# Design: species or system human
# Conditions: NASH patients liver tissue; negative changes indicate good prognosis genes, positive changes poor prognosis genes
substance,measurement,value
DAB1,"Epigenetic (H3K27ac) log2FC, NASH",−0.3238
